Some of the results follow. Shown are side measurements of this screen, not its main read-out; they come without a call. The list favours compounds with an active or inconclusive main result. The note in brackets gives the kind of curve behind each potency; many fits are weak.

A short description of the experiment: IkB Signaling. The note with it: ABC-DLBCL IkBa-CBG/CBR dual luciferase ratio (green luciferase fused to IkBa over red control in OCI-Ly3 lymphoma cells), 4 h; measured here: control luc red channel unless noted. In outline:
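Luminescence ratio of IκBα-fused green versus native red beetle luciferase in OCI-Ly3 cells, 4 h post-doxycycline with compound; red signal alone, scaled from basal (0%) to zero light (-100%), flagged nonspecific or cytotoxic effects.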
Regarding `COc1ccccc1NC(=O)C1CCCN(c2ncnc3onc(-c4ccc(F)cc4)c23)C1` (configuration not stated), the AC50 – broadly, the midpoint of the concentration-response curve, whichever way the signal moves – was 0.316 µM [falling, full curve, poor fit]. Regarding `Cc1ccc(NC(=O)c2ccc3snnc3c2)cc1C`, the concentration at half-maximal activity (AC50) was 0.126 µM [rising, full curve]. In the case of `COc1cccc(NC(=O)C2CCN(S(=O)(=O)c3ccc4[nH]c5c(c4c3)CCCCC5)CC2)c1`, the half-maximal activity concentration (AC50) is 31.6 µM [falling, single point].

As for `COC(=O)c1ccccc1NC(=O)c1nn(-c2ccc(OC)cc2)c(=O)c2c1c1ccccc1n2C`, the AC50 was 0.794 µM [rising, full curve, poor fit]. Turning to `Cc1cc(C)n(-c2nc(C)c(C)c(=O)n2CC(=O)Nc2cccc([N+](=O)[O-])c2)n1`, the AC50 is 3.98 µM [falling, partial curve]. For `COc1ccc(OC)c(NC(=O)N2CC3CCCN3c3ccccc32)c1` (configuration not stated) the value was 12.6 µM [falling, partial curve]. The value for `CCOC(=O)c1cccc(NC(=O)N2CC=C(c3c[nH]c4ccccc34)CC2)c1` was 7.94 µM [falling, full curve]; that for `COCCNc1oc(-c2ccc(OC)cc2)nc1C#N` was 2.51 µM [rising, partial curve]; that for `COc1ccccc1N1CCN(Cc2nc(N)nc(Nc3ccc(C)c(Cl)c3)n2)CC1` was 6.31 µM [falling, partial curve].

Regarding `Cc1cc(Nc2ccc(Br)c(C)c2)n2nc(-c3ccco3)nc2n1`, the AC50 was 10 µM [falling, partial curve]. For `Cc1cc(C)n2nc(CNS(=O)(=O)c3ccccc3)nc2n1` the value was 39.8 µM [falling, single point]. For `O=C(CSc1nnnn1-c1ccc2c(c1)OCCO2)Nc1nc2c(s1)CCCC2` the value was 10 µM [falling, partial curve]; for `CCOC(=O)c1ccccc1NC(=O)COC(=O)CC(C)(C)CC1=NS(=O)(=O)c2ccccc2N1`, 20 µM [falling, partial curve]. The value for `Fc1cc(Br)ccc1Nc1nc2ccccc2n2nnnc12` was 10 µM [falling, partial curve]. For the molecule `Cc1cccc(Nc2nnc(-c3ccc(C)c(S(=O)(=O)N4CCN(C)CC4)c3)c3ccccc23)c1`, the AC50 was 25.1 µM [falling, partial curve]. Turning to `Cc1ccc(Cl)cc1NC(=O)Cn1c(=O)n(C(C)C)c(=O)c2oc3ccccc3c21`, the AC50 is 1 µM [rising, full curve]. For the molecule `Cc1nn2c(=O)cc(COC(=O)c3cccc(NC(=O)c4ccc(F)cc4)c3)nc2s1`, the AC50 is 1 µM [falling, full curve].

`CCn1c(SCC(=O)N(C(C)C)C(C)C)nnc1-c1cc2ccccc2cc1O`: the half-maximal activity concentration (AC50) is 6.31 µM [falling, partial curve]. With `CC(C)CCNC(=O)C(=O)Nc1c2c(nn1-c1ccc(Cl)cc1)CSC2`, the AC50 was 15.8 µM [rising, partial curve]. `COC(=O)c1c(NC(=O)c2ccco2)sc(C(=O)N2CCCC2)c1C`: the concentration at half-maximal activity (AC50) was 5.01 µM [falling, partial curve].

As for `Cc1ccc(-n2nc(-c3ccccc3)c3cnc4cc5c(cc4c32)OCO5)cc1C`, the AC50 is 20 µM [rising, partial curve].

Regarding `CC(=O)Nc1cccc(NC(=O)CSc2ccc(-c3sc(-c4ccccc4)nc3C)nn2)c1`, the AC50 was 3.16 µM [falling, full curve]. For `O=C(O)CCc1ccc(-c2ccccc2)n1-c1ccc(C(=O)O)cc1`, the AC50 was 31.6 µM [falling, partial curve]. For `COc1cc(-c2nc(-c3ccc(NC(=O)c4ccc5c(c4)OCO5)cc3)no2)cc(OC)c1OC`, the half-maximal activity concentration (AC50) was 7.94 µM [falling, partial curve]. On to `COc1ccc(OC)c(NC(=O)CC(=O)Nc2ccc3nc4n(c(=O)c3c2)CCCCC4)c1`, for which the AC50 was 12.6 µM [falling, partial curve]. `CCOc1ccccc1C(=O)N1CCC(c2nc3ccccc3o2)CC1`: the AC50 was 31.6 µM [falling, single point]. Take `Cc1ccc(C2CCN(C(=O)c3cnn(-c4ccc(C)c(C)c4)c3C3CCN(C(=O)OC(C)(C)C)CC3)C2)cc1` (configuration not stated): the AC50 is 25.1 µM [falling, partial curve]. `Cc1[nH]c2ccccc2c1NC(=O)CN1CCN(c2cccc(C(F)(F)F)c2)CC1`: the AC50 was 15.8 µM [falling, partial curve]. Consider `CCOC(=O)SC1=N/C(=C\c2ccc(N(C)C)cc2)C(=O)S1`, for which the half-maximal activity concentration (AC50) was 39.8 µM [falling, single point]. The value for `COc1cccc(NC(=O)CSc2c3c(nc4ccccc24)CCCC3)c1` was 5.01 µM [falling, partial curve].

As to `COc1ccc(-c2cc3nc(C)c(CCC(=O)NC(C)c4ccccc4)c(C)n3n2)c(OC)c1` (configuration not stated), the AC50 is 0.794 µM [falling, full curve]. For `COc1ccc(-c2noc(CN(C)S(=O)(=O)c3ccc(C)cc3)n2)cc1` the value was 12.6 µM [falling, partial curve]; for `Cc1nn(C(=O)c2cccc([N+](=O)[O-])c2C)c(C)c1S(=O)(=O)N1CCCCCC1`, 6.31 µM [falling, full curve]; for `CCOC(=O)c1cccc(NC(=O)CN(c2ccc(C)cc2)S(=O)(=O)c2c(C)noc2C)c1`, 3.98 µM [falling, partial curve]. As for `COc1ccc(NC(=O)c2ccco2)cc1NC(=O)c1ccc(C#N)cc1F`, the half-maximal activity concentration (AC50) was 2 µM [rising, full curve]. As to `COc1ccccc1-c1cc(C(=O)N2CCN(c3ccc(F)cc3)CC2)no1`, the half-maximal activity concentration (AC50) is 0.2 µM [falling, full curve]. `Cc1c(C(=O)Nc2ccc(F)c(Cl)c2)sc2nc3n(c(=O)c12)CCC3`: the AC50 is 25.1 µM [falling, single point]. As for `O=C(NCc1ccco1)Nc1cccs1`, the AC50 is 31.6 µM [rising, partial curve] [measured here: IkB-luc green channel]. Take `O=C(NCCc1ccccc1)C1CCN(c2nc3ccccc3nc2C(F)(F)F)CC1`: the concentration at half-maximal activity (AC50) was 6.31 µM [rising, partial curve]. As to `COc1ccccc1N1CCN(c2ncnc3c2cnn3-c2ccc(C)cc2)CC1`, the AC50 is 3.16 µM [falling, partial curve]. Turning to `FC(F)(F)c1cc(Nc2nc3ccccc3c3nncn23)ccc1Cl`, the AC50 was 39.8 µM [falling, single point]. The value for `CCCCCSc1nnc2c(n1)[nH]c1c(C)cccc12` was 0.0631 µM [rising, full curve]; that for `CCCNC(=O)c1cnn(-c2ccc(C)c(C)c2)c1C1CCN(C(=O)OC(C)(C)C)CC1` was 31.6 µM [falling, partial curve]. As for `Cc1cccc(CN2CCN(CC(=O)NCCc3ccc(Cl)cc3)C2=O)c1`, the AC50 was 10 µM [falling, partial curve]. The value for `Cn1nnnc1Sc1ncnc2scc(-c3ccccc3)c12` was 7.94 µM [falling, partial curve]. The value for `CCOC(=O)N1CCC2(CC1)C(C#N)=C(N)Oc1c2c(C)nn1-c1cccc(Cl)c1` was 12.6 µM [falling, partial curve]; that for `COc1ccc(Cl)cc1NC(=O)CSc1nc2c(oc3ccccc32)c(=O)n1Cc1ccco1` was 2 µM [rising, partial curve]; that for `CCOC(=O)c1ccccc1NC(=O)CN1C(=O)CC(c2ccccc2)Sc2ccccc21` (configuration not stated) was 0.158 µM [falling, full curve]. For `CCOc1cc2c(cc1OCC)C(CC(=O)O)N(C(=O)Nc1ccc(Br)c(C)c1)CC2` (configuration not stated) the value was 20 µM [falling, partial curve]; for `C=CCSc1nnc(CSc2nc3sc4c(c3c(=O)[nH]2)CCCC4)n1-c1ccccc1`, 20 µM [falling, partial curve]; for `CCOc1ccc(N(Cc2ccccc2)C(=O)c2nc(SC)ncc2Cl)cc1`, 12.6 µM [falling, partial curve]. On to `Cc1nn(C)c2c1c(C(F)(F)F)cc(=O)n2Cc1ccc(Br)cc1F`, for which the AC50 is 0.631 µM [falling, full curve].

In the case of `Cc1cccc(NC(=O)CSc2nc3n[nH]c(C)c3c(=N)n2-c2cccc(Cl)c2)c1`, the half-maximal activity concentration (AC50) was 12.6 µM [falling, partial curve]. As for `Cc1cc(C)cc(C(=O)NCCc2sc(-c3ccc(F)cc3)nc2C)c1`, the AC50 was 10 µM [falling, partial curve]. For `CCCOc1ccc(C(=O)N2CCC(c3nc4ccccc4s3)CC2)cc1` the value was 20 µM [falling, partial curve]; for `O=C(C1CC1)N1CCc2cc(Br)cc(S(=O)(=O)Nc3ccc(F)c(F)c3)c21`, 10 µM [falling, partial curve]. The value for `O=S(=O)(NCC(c1ccco1)N1CCN(c2ccccc2)CC1)c1cc(F)ccc1F` (configuration not stated) was 25.1 µM [falling, single point]; that for `Cn1c(=O)oc2ccc(C(=O)CSc3nnnn3-c3ccccc3)cc21` was 31.6 µM [rising, partial curve] [measured here: IkB-luc green channel].

Turning to `N#Cc1c(N2CCN(C(=O)c3ccco3)CC2)nc(-c2ccccc2)c2c1CCCC2`, the AC50 was 2.51 µM [falling, full curve, poor fit].

As for `CNC(=O)c1ccccc1NC(=O)c1ccc(C)c(S(=O)(=O)N2CCCCC2)c1`, the half-maximal activity concentration (AC50) is 25.1 µM [falling, partial curve].

With `CCc1ccc2oc(-c3ccc(C)c(NC(=O)Cc4ccccc4)c3)nc2c1`, the half-maximal activity concentration (AC50) was 0.158 µM [falling, full curve]. As to `CC(C)(C)OC(=O)N1CCC(c2c(C(=O)NCCN3CCOCC3)cnn2-c2cccc(Cl)c2)CC1`, the AC50 was 0.316 µM [falling, full curve, poor fit].

The values are drawn from PubChem BioAssay AID445 (National Center for Advancing Translational Sciences (NCATS), 2006).
